Reference: the supplement of paper PMC12819154, “High-throughput peptide-centric local stability assay extends protein–ligand identification to membrane proteins, tissues and bacteria” (Nature Structural & Molecular Biology, 2025)
The list shows a part of the results. Most values lie at the level of the controls, where differences are scatter.

The chains behind the UniProt entries cited, without tags or fusion partners. Where a name states a change or a piece, a line headed by the entry shows the natural chain unless it says otherwise.
UniProt Q96C34: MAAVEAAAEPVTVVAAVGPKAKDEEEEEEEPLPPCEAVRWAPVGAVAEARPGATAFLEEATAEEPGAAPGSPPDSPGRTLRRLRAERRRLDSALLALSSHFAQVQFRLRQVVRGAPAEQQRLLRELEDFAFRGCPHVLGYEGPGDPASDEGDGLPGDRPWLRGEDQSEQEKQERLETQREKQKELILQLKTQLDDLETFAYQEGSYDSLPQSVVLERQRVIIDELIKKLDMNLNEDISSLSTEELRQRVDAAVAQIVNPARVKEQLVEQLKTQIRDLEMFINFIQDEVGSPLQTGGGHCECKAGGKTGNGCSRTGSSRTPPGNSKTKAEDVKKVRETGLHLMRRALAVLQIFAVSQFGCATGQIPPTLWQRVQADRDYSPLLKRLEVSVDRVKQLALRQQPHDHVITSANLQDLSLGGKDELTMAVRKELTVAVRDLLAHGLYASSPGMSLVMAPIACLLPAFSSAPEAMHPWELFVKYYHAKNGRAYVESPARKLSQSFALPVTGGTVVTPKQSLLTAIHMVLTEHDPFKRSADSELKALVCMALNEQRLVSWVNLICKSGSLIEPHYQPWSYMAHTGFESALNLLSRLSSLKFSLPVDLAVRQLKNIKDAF
UniProt Q92934: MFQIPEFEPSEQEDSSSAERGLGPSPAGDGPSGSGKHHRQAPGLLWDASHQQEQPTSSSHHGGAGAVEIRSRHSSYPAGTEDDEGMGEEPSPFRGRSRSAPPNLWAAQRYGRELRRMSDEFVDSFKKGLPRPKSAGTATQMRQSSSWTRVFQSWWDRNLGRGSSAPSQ
UniProt Q96DN5: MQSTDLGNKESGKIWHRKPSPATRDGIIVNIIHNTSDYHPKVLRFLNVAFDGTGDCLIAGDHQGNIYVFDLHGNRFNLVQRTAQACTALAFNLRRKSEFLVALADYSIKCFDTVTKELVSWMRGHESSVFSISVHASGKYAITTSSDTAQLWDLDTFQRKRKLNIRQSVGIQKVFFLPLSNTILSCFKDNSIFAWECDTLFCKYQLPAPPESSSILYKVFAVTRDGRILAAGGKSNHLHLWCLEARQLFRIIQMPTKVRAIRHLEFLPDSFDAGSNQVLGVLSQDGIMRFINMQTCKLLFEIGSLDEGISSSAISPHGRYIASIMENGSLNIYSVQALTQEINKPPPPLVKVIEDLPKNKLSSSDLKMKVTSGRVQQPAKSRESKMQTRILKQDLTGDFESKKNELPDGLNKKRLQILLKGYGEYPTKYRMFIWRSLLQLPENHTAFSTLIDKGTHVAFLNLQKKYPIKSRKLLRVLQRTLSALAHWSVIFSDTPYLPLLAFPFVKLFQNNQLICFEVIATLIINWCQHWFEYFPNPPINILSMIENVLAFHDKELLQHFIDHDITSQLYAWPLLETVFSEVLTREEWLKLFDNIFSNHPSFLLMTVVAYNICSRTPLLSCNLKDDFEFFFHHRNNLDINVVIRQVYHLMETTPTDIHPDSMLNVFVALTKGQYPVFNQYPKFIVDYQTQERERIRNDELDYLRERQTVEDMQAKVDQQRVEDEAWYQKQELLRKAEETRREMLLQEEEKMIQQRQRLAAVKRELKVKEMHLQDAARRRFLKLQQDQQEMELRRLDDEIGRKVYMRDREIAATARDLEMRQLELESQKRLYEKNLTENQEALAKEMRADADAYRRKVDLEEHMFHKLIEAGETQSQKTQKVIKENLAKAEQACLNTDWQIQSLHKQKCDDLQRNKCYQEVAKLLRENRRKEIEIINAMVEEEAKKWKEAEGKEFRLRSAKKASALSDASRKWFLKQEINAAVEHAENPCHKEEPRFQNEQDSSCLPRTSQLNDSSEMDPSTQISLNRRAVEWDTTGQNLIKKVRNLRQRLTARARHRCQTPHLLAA
UniProt Q92805: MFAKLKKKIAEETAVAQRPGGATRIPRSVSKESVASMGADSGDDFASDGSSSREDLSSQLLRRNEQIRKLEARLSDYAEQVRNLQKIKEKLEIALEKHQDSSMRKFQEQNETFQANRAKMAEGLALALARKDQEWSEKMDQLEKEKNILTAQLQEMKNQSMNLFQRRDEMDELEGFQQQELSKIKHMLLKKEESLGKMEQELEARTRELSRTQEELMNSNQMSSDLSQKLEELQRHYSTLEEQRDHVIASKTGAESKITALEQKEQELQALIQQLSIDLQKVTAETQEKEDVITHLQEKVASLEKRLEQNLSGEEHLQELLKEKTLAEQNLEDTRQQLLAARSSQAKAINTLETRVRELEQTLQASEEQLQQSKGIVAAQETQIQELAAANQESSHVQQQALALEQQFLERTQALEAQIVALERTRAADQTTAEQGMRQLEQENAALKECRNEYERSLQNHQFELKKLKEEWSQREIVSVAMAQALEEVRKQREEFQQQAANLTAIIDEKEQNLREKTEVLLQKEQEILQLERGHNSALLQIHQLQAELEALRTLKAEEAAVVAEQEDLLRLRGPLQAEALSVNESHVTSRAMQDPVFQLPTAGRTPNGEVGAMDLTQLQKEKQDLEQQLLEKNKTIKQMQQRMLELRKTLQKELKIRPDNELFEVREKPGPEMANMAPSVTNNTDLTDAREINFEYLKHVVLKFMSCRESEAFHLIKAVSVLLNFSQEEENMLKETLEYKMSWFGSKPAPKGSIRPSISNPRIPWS
UniProt Q96BR6: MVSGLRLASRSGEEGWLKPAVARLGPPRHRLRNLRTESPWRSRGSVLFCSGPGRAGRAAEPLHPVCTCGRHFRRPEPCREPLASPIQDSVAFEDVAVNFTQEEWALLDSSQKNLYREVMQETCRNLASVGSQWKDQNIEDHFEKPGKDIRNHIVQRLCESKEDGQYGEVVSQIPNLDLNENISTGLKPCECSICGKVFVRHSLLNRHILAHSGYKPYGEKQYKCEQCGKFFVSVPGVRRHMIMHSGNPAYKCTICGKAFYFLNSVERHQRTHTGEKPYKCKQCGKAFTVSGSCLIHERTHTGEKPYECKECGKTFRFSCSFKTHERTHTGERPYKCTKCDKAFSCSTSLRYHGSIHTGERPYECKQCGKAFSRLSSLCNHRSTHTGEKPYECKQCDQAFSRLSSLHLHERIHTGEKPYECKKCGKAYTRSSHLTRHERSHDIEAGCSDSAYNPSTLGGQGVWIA
UniProt Q96AH0: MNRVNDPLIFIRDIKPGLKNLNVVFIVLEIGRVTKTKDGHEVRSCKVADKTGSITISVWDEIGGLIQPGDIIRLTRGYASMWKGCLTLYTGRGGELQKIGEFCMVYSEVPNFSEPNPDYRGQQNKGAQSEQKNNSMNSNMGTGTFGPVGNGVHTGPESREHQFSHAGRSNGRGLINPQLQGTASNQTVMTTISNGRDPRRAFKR
UniProt Q92628: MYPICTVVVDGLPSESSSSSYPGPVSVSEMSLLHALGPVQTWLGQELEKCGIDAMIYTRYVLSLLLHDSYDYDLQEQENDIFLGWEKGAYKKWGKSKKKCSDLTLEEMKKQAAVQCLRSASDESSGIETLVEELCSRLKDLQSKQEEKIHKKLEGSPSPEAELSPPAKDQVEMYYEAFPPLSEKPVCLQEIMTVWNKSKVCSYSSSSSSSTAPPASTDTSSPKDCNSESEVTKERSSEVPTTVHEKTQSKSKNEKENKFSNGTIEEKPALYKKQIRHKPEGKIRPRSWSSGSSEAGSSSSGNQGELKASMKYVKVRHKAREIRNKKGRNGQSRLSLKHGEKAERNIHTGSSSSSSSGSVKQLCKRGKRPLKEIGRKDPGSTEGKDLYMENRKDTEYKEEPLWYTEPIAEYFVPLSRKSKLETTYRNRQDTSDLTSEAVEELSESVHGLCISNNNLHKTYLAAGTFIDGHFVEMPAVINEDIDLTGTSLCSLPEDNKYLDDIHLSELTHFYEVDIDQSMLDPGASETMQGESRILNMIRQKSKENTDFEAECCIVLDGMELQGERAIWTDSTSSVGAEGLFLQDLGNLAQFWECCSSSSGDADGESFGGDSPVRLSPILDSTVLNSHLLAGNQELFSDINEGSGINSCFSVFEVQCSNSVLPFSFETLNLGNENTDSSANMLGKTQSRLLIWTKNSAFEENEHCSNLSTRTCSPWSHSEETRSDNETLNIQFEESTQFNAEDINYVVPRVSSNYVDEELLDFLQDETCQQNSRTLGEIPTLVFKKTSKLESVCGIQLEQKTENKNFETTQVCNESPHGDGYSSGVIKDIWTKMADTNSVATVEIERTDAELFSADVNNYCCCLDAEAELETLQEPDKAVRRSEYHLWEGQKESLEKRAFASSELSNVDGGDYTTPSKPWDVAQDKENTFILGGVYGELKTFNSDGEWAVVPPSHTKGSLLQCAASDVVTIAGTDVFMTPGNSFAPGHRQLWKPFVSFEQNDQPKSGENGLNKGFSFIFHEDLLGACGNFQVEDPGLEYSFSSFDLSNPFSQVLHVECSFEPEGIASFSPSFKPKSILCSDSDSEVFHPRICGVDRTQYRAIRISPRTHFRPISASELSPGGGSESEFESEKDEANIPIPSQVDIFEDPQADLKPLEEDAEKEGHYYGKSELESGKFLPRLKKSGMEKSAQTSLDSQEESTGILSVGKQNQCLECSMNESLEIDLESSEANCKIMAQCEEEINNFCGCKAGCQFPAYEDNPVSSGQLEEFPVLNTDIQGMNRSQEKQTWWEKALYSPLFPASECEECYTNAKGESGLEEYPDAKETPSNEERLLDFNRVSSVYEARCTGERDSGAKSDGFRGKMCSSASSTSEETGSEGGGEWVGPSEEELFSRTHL
UniProt Q92841: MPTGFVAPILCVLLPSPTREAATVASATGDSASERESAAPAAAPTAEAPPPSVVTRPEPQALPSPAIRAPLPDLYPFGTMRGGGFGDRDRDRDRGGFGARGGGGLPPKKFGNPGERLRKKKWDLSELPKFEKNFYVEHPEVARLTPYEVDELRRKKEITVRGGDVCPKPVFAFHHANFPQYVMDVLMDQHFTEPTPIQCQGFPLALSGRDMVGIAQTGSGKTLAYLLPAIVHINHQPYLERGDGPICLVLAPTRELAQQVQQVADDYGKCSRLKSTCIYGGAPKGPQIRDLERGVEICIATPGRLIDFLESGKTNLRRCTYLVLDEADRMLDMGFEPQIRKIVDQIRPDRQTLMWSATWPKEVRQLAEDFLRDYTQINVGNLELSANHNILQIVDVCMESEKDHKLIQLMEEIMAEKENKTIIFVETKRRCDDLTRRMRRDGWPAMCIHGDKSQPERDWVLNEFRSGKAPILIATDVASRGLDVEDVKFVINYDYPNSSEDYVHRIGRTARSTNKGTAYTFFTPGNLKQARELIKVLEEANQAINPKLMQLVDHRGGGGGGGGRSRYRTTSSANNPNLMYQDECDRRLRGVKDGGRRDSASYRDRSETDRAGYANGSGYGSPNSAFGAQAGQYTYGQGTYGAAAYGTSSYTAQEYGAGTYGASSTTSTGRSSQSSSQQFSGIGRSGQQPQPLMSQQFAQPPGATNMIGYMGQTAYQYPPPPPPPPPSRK
UniProt Q92974: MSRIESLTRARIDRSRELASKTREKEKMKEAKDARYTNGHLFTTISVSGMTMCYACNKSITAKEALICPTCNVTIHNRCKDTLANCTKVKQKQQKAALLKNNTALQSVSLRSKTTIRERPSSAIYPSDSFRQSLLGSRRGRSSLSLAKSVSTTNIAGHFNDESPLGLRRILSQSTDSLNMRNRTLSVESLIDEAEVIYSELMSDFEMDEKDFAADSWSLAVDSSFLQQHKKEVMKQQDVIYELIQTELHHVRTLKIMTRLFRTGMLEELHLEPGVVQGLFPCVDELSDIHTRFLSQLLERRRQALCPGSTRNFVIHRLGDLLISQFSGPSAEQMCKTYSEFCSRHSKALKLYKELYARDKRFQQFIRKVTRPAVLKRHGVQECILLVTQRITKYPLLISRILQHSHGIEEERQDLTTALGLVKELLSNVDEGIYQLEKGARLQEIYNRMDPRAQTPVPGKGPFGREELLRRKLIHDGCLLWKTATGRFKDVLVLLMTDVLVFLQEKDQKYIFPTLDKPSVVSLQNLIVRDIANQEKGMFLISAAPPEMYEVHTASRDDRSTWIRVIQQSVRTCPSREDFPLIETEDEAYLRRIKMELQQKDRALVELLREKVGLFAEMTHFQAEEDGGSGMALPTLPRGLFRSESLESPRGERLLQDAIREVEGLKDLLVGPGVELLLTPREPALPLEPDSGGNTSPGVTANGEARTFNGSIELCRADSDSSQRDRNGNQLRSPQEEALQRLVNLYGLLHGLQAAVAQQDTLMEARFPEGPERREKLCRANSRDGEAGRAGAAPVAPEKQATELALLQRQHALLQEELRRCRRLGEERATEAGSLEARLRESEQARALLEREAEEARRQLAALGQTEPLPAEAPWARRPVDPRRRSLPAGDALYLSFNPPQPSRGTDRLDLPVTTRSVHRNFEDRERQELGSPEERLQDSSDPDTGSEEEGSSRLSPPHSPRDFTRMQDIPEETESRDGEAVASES

What follows are targets tested with Cc1nc(Nc2ncc(C(=O)Nc3c(C)cccc3Cl)s2)cc(N2CCN(CCO)CC2)n1 [dasatinib] (assay: log2 fold change of tryptic peptide abundance, ligand vs vehicle (limited proteolysis) (log2 ratio); higher = more trypsin-susceptible (destabilized)). Conditions: ligand concentration: 5 uM; sample: K562 cleared lysate.

Row | Target | log2 fold change
1 | RUNDC1 (peptide sequence: WAPVGAVAEAR, peptide start residue: 40) (UniProt Q96C34) | -0.276
2 | BAD (peptide sequence: VFQSWWDR, peptide start residue: 150) (UniProt Q92934) | 0.257
3 | MRPL53 (peptide sequence: TFLQTVSSEK, peptide start residue: 32) (UniProt Q96EL3) | 0.102
4 | UniProt Q96DN5 (peptide sequence: VKEMHLQDAAR, peptide start residue: 767) | -0.314
5 | UniProt Q969J3 (peptide sequence: YQDHLHQCAEAVAFDQNALVKR, peptide start residue: 96) | 0.862
6 | GOLGA1 (peptide sequence: NILTAQLQEMK, peptide start residue: 147) (UniProt Q92805) | -0.253
7 | ZNF669 (peptide sequence: EVMQETCR, peptide start residue: 117) (UniProt Q96BR6) | 0.286
8 | NABP1 (peptide sequence: EHQFSHAGR, peptide start residue: 160) (UniProt Q96AH0) | -0.32
9 | UniProt Q92628 (peptide sequence: NSAFEENEHCSNLSTR, peptide start residue: 694) | 0.629
10 | UniProt Q92841 (peptide sequence: RDGWPAMCIHGDK, peptide start residue: 440) | 0.315
11 | ARHGEF2 (peptide sequence: LRESEQAR, peptide start residue: 839) (UniProt Q92974) | -0.35

Part of the list above, with each value named.
UniProt Q96DN5 (peptide sequence: VKEMHLQDAAR, peptide start residue: 767)
  log2 fold change: -0.314
UniProt Q969J3 (peptide sequence: YQDHLHQCAEAVAFDQNALVKR, peptide start residue: 96)
  log2 fold change: 0.862
